For at least one compound, name, drawing or mass did not settle the structure.
Assay: Hydroxyapatite (HA) Binding Assay
From the text: The supernatant was transferred to another microcentrifuge tube.

SMILES: CN(C)[C@@H]1C(O)=C(C(N)=O)C(=O)[C@@]2(O)C(O)=C3C(=O)c4c(O)cccc4[C@@](C)(O)[C@H]3C[C@@H]12 [tetracycline, Tetracycline]
- Binding Index (binding to hydroxyapatite, 10^−5 M analyte, 50 mM Tris-HCl pH 7.4, 1% DMSO, tetracycline reference): 100
- adsorbed to HA (concentration of 10^−5 M): approximately 50%

Reference: US20080221070A1, “METHODS AND COMPOUNDS FOR THE TARGETED DELIVERY OF AGENTS TO BONE FOR INTERACTION THEREWITH” (priority 2007, published 2008)
